PubChem BioAssay AID493246, Drosophila RNAi Screening Center – 2011

- Assay: 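Genes fly cells need to grow and stay alive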 (primary screen)
- System: Drosophila Kc and S2R+ cells
- Reagents: long dsRNA against Drosophila genes
- Detection: 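Raw, unnormalised count of remaining cells in each well; per-plate z-scores of cell number underlie the calls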
- Scale: Kc cell number and S2R+ cell number: higher = more cells remaining
- Rule for the call: 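Active when the per-plate z-score of cell number is 3 or more in the direction of fewer cells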
The deposit covers about 21,000 reagents; below is a random part of those with a known target gene and a result. Over the whole deposit, 429 (2%) were called active. 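Values are raw and not normalised between plates; calls rest on per-plate z-scores that were not deposited.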 A number with no mark means an inactive call. Reagent sequences are not shown. Not given: the amount of reagent, the time to read-out.

| gene knocked down | dsRNA | Kc cell number, rep 1 | Kc cell number, rep 2 | S2R+ cell number, rep 1 | S2R+ cell number, rep 2 |
| --- | --- | --- | --- | --- | --- |
| wge (GeneID 42687) | DRSC15246 | 1.51e6 | 1.64e6 | 1.21e6 | 1.27e6 |
| wge (GeneID 42687) | DRSC15672 | 1.57e6 | 1.52e6 | 1.01e6 | 1.12e6 |
| up (GeneID 32314) | DRSC20382 | 5.53e5 | – | 7.11e5 | – |
| Pink1 (GeneID 31607) | DRSC18361 | 4.80e5 | – | 8.07e5 | – |
| CG2889 (GeneID 31977) | DRSC18236 | 1.57e6 | 1.55e6 | 1.04e6 | 1.11e6 |
| Ttc30 (GeneID 34702) | DRSC01300 | 1.37e6 | 1.44e6 | 1.02e6 | 1.12e6 |
| Ttc30 (GeneID 34702) | DRSC02818 | 1.61e6 | 1.72e6 | 1.27e6 | 1.43e6 |
| CG7465 (GeneID 38553) | DRSC08592 | 1.53e6 | 1.40e6 | 1.12e6 | 1.25e6 |
| hzg (GeneID 39748) | DRSC10549 | 1.36e6 | 1.46e6 | 1.12e6 | 1.25e6 |
| bigmax (GeneID 43293) | DRSC15481 | 5.17e5 | – | 8.50e5 | – |
| Sgs1 (GeneID 33701) | DRSC00787 | 1.64e6 | 1.62e6 | 1.27e6 | 1.38e6 |
| Sgs1 (GeneID 33701) | DRSC00848 | 1.77e6 | 1.75e6 | 1.05e6 | 1.26e6 |
| CG8260 (GeneID 32521) | DRSC20098 | 1.52e6 | 1.50e6 | 1.07e6 | 1.16e6 |
| Ptpa (GeneID 33555) | DRSC00776 | 1.38e6 | 1.37e6 | 1.09e6 | 1.06e6 |
| CG13230 (GeneID 50237) | DRSC06350 | 1.55e6 | 1.54e6 | 1.18e6 | 1.33e6 |
| CG17684 (GeneID 3355066) | DRSC07724 | 5.62e5 | – | 7.65e5 | – |
| CG17684 (GeneID 3355066) | DRSC21166 | 1.45e6 | 1.48e6 | 1.04e6 | 1.09e6 |
| jeb (GeneID 36295) | DRSC06305 | 1.58e6 | 1.51e6 | 1.18e6 | 1.26e6 |
| jeb (GeneID 36295) | DRSC06307 | 1.54e6 | 1.62e6 | 1.17e6 | 1.32e6 |
| lectin-21Cb (GeneID 33242) | DRSC00355 | 1.54e6 | 1.58e6 | 1.06e6 | 1.15e6 |
| CG14564 (GeneID 40425) | DRSC11725 | 1.34e6 | 1.33e6 | 1.30e6 | 1.38e6 |
| Gr59f (GeneID 37726) | DRSC04499 | 1.57e6 | 1.63e6 | 1.33e6 | 1.43e6 |
| CG18662 (GeneID 50437) | DRSC02691 | 1.53e6 | 1.57e6 | 1.22e6 | 1.39e6 |
| CG13795 (GeneID 34049) | DRSC02299 | 1.64e6 | 1.60e6 | 1.15e6 | 1.31e6 |
| CG6398 (GeneID 32761) | DRSC19992 | 1.47e6 | 1.53e6 | 1.07e6 | 1.18e6 |
| Prosalpha6T (GeneID 34726) | DRSC02873 | 1.60e6 | 1.62e6 | 1.33e6 | 1.51e6 |
| CG6602 (GeneID 38691) | DRSC10673 | 1.57e6 | 1.53e6 | 1.25e6 | 1.20e6 |
| CG7115 (GeneID 34069) | DRSC02000 | 1.56e6 | 1.53e6 | 1.09e6 | 1.20e6 |

The list goes on (3 carried over from the part before).
| gene knocked down | dsRNA | Kc cell number, rep 1 | Kc cell number, rep 2 | S2R+ cell number, rep 1 | S2R+ cell number, rep 2 |
| --- | --- | --- | --- | --- | --- |
| Prosalpha6T (GeneID 34726) | DRSC02873 | 1.60e6 | 1.62e6 | 1.33e6 | 1.51e6 |
| CG6602 (GeneID 38691) | DRSC10673 | 1.57e6 | 1.53e6 | 1.25e6 | 1.20e6 |
| CG7115 (GeneID 34069) | DRSC02000 | 1.56e6 | 1.53e6 | 1.09e6 | 1.20e6 |
| CG15465 (GeneID 31434) | DRSC18048 | 1.57e6 | 1.60e6 | 1.14e6 | 1.29e6 |
| CG5418 (GeneID 34663) | DRSC02857 | 1.77e6 | 1.78e6 | 1.39e6 | 1.48e6 |
| dec (GeneID 31691) | DRSC18759 | 1.68e6 | 1.67e6 | 1.14e6 | 1.26e6 |
| Cdk8 (GeneID 39157) | DRSC11113 | 1.19e6 | 1.25e6 | 1.16e6 | 8.79e5 |
| Cks85A (GeneID 41034) | DRSC16562 | 1.67e6 | 1.89e6 | 1.23e6 | 1.30e6 |
| mv (GeneID 38259) | DRSC08208 | 1.50e6 | 1.32e6 | 1.03e6 | 1.35e6 |
| mv (GeneID 38259) | DRSC08570 | 1.50e6 | 1.27e6 | 9.65e5 | 1.36e6 |
| CG15705 (GeneID 36815) | DRSC06576 | 1.62e6 | 1.68e6 | 1.27e6 | 1.46e6 |
| Naa40 (GeneID 43500) | DRSC16265 | 1.42e6 | 1.45e6 | 1.01e6 | 1.09e6 |
| CG13047 (GeneID 39790) | DRSC09928 | 1.33e6 | 1.42e6 | 1.33e6 | 1.40e6 |
| Agpat3 (GeneID 39820) | DRSC10445 | 1.60e6 | 1.56e6 | 1.34e6 | 1.42e6 |
| rnh1 (GeneID 35746) | DRSC07673 | 1.42e6 | 1.52e6 | 1.15e6 | 1.20e6 |
| Tti1 (GeneID 41189) | DRSC15163 | 1.40e6 | 1.42e6 | 1.30e6 | 1.39e6 |
| CG31898 (GeneID 319012) | DRSC01019 | 1.40e6 | 1.49e6 | 9.71e5 | 1.11e6 |
| CG4678 (GeneID 32652) | DRSC19911 | 1.55e6 | 1.58e6 | 1.06e6 | 1.15e6 |
| CG4678 (GeneID 32652) | DRSC19912 | 1.52e6 | 1.53e6 | 1.06e6 | 1.13e6 |
| botv (GeneID 37198) | DRSC05949 | 1.33e6 | 1.40e6 | 9.34e5 | 9.89e5 |
| CG31633 (GeneID 33931) | DRSC02275 | 1.57e6 | 1.51e6 | 1.11e6 | 1.24e6 |
| CG11600 (GeneID 41555) | DRSC14332 | 1.68e6 | 1.82e6 | 1.31e6 | 1.41e6 |
| TpnC4 (GeneID 35498) | DRSC04856 | 1.73e6 | 1.82e6 | 1.50e6 | 1.50e6 |
| kl-2 (GeneID 3355181) | DRSC21136 | 1.40e6 | 1.48e6 | 1.07e6 | 1.14e6 |
| Jhedup (GeneID 36779) | DRSC07173 | 1.58e6 | 1.58e6 | 1.12e6 | 1.25e6 |
| CG6195 (GeneID 42343) | DRSC15989 | 1.25e6 | 1.21e6 | 1.07e6 | 1.11e6 |
| Drsl2 (GeneID 38408) | DRSC08160 | 1.56e6 | 1.45e6 | 9.66e5 | 1.12e6 |
| CG11291 (GeneID 37541) | DRSC04097 | 1.61e6 | 1.64e6 | 1.27e6 | 4.65e5 |
| CG32733 (retired record) (GeneID 318179) | DRSC17481 | 1.32e6 | 1.48e6 | 9.99e5 | 1.09e6 |
| FASN2 (GeneID 117361) | DRSC00167 | 1.61e6 | 1.62e6 | 1.14e6 | 1.30e6 |
| FASN2 (GeneID 117361) | DRSC00610 | 1.37e6 | 1.35e6 | 1.05e6 | 1.16e6 |
| Ptp36E (GeneID 35091) | DRSC03021 | 1.78e6 | 1.97e6 | 1.26e6 | 1.38e6 |
| MrgBP (GeneID 35880) | DRSC06417 | 1.41e6 | 1.38e6 | 1.30e6 | 1.43e6 |
| Or35a (GeneID 34918) | DRSC03389 | 1.56e6 | 1.72e6 | 1.22e6 | 1.39e6 |
| PSMG1 (GeneID 40719) | DRSC12297 | 1.48e6 | 1.51e6 | 1.28e6 | 1.40e6 |
| ena (GeneID 37201) | DRSC05779 | 4.48e5 | – | 7.63e5 | – |
| ena (GeneID 37201) | DRSC07610 | 1.20e6 | 1.32e6 | 9.86e5 | 9.65e5 |
| Hmg-2 (GeneID 37407) | DRSC04554 | 1.26e6 | 1.36e6 | 1.03e6 | 1.10e6 |
| Edg84A (GeneID 40818) | DRSC12594 | 1.47e6 | 1.52e6 | 1.32e6 | 1.43e6 |
| Or49b (GeneID 36413) | DRSC07494 | 1.66e6 | 1.64e6 | 1.35e6 | 1.49e6 |
| CG10384 (GeneID 37567) | DRSC03933 | 5.78e5 | – | 8.61e5 | – |
| CG10384 (GeneID 37567) | DRSC04067 | 1.44e6 | 1.43e6 | 9.24e5 | 1.07e6 |
| CG14450 (GeneID 40490) | DRSC11707 | 1.58e6 | 1.69e6 | 1.31e6 | 1.45e6 |
| Ip6k (GeneID 37465) | DRSC04054 | 9.30e5 | 1.01e6 | 7.67e5 | 6.23e5 |
| Ing3 (GeneID 32853) | DRSC20002 | 1.72e6 | 1.54e6 | 1.14e6 | 1.17e6 |
| Brca2 (GeneID 37916) | DRSC04219 | 1.47e6 | 1.52e6 | 1.30e6 | 1.40e6 |
| Brca2 (GeneID 37916) | DRSC04220 | 1.56e6 | 1.60e6 | 1.34e6 | 1.51e6 |
| Drip (GeneID 36236) | DRSC07405 | 1.58e6 | 1.59e6 | 1.37e6 | 1.46e6 |
| CG11131 (GeneID 40511) | DRSC11636 | 1.58e6 | 1.74e6 | 1.46e6 | 1.51e6 |
| CG13627 (GeneID 42941) | DRSC14629 | 1.38e6 | 1.42e6 | 1.03e6 | 1.16e6 |
